Measurements from the supplement of paper PMC10849652.
The other results are listed elsewhere or left out.

The chains behind the UniProt entries cited, without tags or fusion partners. Where a name states a change or a piece, a line headed by the entry shows the natural chain unless it says otherwise.
UniProt P13489: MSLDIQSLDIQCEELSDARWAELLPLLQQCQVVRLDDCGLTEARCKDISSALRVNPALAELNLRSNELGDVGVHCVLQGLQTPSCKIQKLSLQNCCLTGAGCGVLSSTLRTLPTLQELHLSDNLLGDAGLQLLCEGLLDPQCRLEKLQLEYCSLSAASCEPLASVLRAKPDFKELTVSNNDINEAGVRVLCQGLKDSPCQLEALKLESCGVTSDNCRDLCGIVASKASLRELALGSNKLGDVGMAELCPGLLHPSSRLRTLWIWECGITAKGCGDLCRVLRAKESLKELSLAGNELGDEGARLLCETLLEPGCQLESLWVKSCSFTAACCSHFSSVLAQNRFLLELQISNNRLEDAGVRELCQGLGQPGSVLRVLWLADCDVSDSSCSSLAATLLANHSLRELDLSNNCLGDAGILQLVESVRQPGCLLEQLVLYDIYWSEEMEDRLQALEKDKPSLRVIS
UniProt P04843: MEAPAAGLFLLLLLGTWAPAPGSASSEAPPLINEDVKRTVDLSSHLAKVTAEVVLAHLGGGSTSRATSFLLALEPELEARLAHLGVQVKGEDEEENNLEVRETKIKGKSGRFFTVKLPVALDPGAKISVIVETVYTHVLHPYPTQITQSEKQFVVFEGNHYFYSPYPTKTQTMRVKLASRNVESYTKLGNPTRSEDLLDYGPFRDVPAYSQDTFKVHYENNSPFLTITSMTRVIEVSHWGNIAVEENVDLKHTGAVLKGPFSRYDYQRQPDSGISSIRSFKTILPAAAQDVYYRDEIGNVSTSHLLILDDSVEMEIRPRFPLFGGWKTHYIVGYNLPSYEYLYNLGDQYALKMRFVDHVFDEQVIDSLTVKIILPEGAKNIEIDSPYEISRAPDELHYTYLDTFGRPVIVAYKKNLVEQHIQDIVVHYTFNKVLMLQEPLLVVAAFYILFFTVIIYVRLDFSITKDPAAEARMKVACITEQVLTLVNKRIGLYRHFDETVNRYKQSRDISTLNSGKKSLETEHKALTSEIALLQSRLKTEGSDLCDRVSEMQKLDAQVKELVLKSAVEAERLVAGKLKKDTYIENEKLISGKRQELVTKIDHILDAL
UniProt P78346: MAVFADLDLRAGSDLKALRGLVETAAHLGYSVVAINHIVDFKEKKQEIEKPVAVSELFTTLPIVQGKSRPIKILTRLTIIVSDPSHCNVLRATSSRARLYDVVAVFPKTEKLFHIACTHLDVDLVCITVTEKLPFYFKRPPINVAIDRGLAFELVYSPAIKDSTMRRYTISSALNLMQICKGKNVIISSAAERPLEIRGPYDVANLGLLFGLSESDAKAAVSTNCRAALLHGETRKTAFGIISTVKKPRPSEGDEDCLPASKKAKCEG
UniProt P10155: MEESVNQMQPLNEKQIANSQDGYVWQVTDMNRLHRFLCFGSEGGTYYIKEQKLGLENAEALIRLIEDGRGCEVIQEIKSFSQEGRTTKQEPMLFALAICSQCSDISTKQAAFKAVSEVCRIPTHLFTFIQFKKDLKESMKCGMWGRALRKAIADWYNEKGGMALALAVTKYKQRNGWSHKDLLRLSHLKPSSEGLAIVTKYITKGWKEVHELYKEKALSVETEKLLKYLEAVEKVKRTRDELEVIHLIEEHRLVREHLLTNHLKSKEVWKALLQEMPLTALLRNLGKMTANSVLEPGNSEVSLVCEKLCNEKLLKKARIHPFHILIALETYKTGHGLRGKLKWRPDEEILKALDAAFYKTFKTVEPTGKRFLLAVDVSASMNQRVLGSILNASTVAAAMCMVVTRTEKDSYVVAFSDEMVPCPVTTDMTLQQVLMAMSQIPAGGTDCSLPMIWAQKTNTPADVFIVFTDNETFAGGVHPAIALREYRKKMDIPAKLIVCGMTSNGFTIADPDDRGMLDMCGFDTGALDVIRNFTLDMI
UniProt Q7LG56, whole entry, looked up: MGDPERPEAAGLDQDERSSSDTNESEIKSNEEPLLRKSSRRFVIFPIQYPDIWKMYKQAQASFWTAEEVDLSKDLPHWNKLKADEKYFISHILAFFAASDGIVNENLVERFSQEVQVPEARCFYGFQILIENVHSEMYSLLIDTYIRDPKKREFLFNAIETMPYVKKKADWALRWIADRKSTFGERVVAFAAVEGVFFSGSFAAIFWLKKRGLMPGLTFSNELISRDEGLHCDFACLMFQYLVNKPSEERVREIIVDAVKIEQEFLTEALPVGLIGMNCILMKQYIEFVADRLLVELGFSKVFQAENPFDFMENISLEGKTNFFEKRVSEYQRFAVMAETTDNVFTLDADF
UniProt O75695: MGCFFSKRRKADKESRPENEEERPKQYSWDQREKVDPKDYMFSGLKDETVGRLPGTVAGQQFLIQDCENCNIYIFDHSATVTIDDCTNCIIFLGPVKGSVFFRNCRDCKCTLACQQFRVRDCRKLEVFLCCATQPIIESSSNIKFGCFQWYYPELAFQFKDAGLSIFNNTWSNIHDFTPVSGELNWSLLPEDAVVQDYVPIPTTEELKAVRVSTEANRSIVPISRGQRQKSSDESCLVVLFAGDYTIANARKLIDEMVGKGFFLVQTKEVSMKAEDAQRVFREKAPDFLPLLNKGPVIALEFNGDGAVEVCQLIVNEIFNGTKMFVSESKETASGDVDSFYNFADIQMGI
UniProt O75818: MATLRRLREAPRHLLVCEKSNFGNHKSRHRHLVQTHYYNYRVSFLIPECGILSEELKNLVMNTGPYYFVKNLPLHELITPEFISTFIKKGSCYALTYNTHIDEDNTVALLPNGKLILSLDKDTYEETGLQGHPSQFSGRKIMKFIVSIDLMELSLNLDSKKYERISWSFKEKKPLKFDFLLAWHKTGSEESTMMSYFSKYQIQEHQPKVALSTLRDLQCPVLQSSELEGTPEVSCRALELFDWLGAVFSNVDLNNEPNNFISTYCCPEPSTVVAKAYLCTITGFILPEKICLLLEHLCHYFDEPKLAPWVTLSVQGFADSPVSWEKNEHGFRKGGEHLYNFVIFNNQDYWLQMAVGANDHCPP
UniProt Q96BH1: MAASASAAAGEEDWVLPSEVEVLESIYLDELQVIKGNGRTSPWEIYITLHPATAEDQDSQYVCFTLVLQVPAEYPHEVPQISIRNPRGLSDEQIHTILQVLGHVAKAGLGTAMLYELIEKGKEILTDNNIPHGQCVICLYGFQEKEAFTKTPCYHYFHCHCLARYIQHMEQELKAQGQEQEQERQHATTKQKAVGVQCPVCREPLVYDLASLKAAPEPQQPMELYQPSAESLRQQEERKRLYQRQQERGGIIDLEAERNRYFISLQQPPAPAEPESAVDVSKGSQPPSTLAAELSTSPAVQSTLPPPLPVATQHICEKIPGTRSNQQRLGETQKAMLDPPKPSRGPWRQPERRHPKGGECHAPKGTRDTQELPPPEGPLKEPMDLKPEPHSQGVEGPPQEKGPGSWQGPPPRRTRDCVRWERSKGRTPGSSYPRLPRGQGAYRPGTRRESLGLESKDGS
UniProt Q86WX3: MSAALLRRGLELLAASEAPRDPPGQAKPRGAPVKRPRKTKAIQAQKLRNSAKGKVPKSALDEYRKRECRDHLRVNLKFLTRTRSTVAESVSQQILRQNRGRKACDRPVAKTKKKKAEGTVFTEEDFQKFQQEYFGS
UniProt Q9P2E9: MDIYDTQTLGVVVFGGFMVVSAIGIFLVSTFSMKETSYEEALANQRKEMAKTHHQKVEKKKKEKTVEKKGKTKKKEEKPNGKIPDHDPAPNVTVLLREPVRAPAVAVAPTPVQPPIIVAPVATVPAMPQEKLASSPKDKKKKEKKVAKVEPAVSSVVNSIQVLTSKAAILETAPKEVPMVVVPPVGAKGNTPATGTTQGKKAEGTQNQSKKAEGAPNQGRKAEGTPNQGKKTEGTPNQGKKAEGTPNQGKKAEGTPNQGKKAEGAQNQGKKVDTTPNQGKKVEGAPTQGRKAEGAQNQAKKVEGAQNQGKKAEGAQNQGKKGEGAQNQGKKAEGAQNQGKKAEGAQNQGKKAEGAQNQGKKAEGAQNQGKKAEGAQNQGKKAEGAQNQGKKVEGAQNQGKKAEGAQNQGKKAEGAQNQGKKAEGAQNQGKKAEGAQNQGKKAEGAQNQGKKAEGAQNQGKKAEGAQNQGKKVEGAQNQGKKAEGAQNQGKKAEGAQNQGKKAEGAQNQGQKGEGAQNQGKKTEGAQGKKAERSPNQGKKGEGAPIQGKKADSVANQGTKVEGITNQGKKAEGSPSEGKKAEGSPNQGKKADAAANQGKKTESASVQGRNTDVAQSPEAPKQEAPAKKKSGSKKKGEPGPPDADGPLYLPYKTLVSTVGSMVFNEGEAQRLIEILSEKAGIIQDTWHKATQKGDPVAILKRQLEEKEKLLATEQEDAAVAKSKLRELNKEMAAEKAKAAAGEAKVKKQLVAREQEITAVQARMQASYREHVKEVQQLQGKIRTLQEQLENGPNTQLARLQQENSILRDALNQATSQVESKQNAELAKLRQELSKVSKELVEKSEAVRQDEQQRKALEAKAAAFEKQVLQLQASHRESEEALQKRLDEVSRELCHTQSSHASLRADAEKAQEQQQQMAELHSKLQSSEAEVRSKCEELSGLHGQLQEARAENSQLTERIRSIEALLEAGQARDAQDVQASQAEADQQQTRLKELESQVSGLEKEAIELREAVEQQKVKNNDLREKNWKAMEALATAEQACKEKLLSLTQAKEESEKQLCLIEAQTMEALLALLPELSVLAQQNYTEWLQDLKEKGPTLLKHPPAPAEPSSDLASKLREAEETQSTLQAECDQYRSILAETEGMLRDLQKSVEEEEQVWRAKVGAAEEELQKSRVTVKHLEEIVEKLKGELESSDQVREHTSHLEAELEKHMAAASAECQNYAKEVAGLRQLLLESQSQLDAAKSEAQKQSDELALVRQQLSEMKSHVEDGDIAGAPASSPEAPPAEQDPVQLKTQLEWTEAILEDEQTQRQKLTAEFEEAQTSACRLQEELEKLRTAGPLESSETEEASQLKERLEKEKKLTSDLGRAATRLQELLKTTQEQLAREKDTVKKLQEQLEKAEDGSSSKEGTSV

compound: CS(=O)(=O)CCNCc1ccc(-c2ccc3ncnc(Nc4ccc(OCc5cccc(F)c5)c(Cl)c4)c3c2)o1 [lapatinib]; assay: log2 fold change, soluble protein after heating vs DMSO (PISA); higher = thermal stabilisation; K562 cells, 10 uM, 30 min; active = over 0.2 and 3.5 SD of the protein, either way, in both replicates (recomputed)
How it was run: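 Soluble protein was quantified by TMTpro 16plex LC-MS/MS after channel sums were equalised. It was obtained as the supernatant after 21,000xg for 90 min from pooled aliquots of K562 cells (2×10^6 cells/mL, 10 μM compound, 30 min) heated for 3 min across 48°C-58°C and extracted in PBS with 0.5% NP-40 at 4°C. Thermal stability values are relative to control samples and come from duplicates. They are given as log2 fold changes.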

log2 fold change, inactive:
RPL9 (UniProt P32969) 0.29, RNH1 (UniProt P13489) 0, RPL24 (UniProt P83731) 0.195, RPS17 (UniProt P08708) 0.045, RPL17 isoform 3 (UniProt P18621) 0.215, RPN1 (UniProt P04843) -0.041, RPP30 isoform 2 (UniProt P78346) 0.053, RPL15 (UniProt P61313) 0.346, RO60 (UniProt P10155) -0.005, RRM2B isoform 6 (UniProt Q7LG56) -0.013, RP2 (UniProt O75695) 0.122, RPP40 (UniProt O75818) 0.058, RPL36 (UniProt Q9Y3U8) 0.407, RPL11 (UniProt P62913) 0.266, RPL13 (UniProt P26373) 0.319, RNF25 (UniProt Q96BH1) -0.017, RPL8 (UniProt P62917) 0.328, RPS27 (UniProt P42677) -0.027, RPS19BP1 (UniProt Q86WX3) 0.087, RPL35 (UniProt P42766) 0.078, RPS10 (UniProt P46783) 0.112, RRBP1 (UniProt Q9P2E9) 0.185, RPL22 (UniProt P35268) 0.047
